Experimental data from patent publication US20170009288.
For some assays here: No signal at the amounts used counts as a negative. A weaker result is weaker than the reference pair of the same experiment. For some assays here: Construct, isoform or probe ends are uncertain for at least one entry.

By UniProt entry, the sequences of proteins in these tests, tags left out. Where a name states a change or a piece, a line headed by the entry shows the natural chain unless it says otherwise.
UniProt P07636: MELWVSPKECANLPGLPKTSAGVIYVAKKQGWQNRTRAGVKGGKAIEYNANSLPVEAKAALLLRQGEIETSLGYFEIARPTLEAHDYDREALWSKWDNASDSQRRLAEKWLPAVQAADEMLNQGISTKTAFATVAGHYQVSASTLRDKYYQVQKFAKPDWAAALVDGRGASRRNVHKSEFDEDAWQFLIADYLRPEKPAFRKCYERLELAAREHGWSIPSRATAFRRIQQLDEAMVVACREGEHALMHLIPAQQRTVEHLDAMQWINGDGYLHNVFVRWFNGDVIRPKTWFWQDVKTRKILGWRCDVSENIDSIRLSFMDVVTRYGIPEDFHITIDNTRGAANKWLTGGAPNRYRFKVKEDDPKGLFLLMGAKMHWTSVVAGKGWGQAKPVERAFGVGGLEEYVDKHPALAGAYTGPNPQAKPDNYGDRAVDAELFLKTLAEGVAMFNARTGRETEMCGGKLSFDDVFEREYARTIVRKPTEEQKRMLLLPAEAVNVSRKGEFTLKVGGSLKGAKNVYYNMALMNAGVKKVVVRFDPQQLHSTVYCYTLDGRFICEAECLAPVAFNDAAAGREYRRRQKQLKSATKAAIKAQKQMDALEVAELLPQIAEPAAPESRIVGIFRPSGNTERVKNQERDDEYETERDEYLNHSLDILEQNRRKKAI

Key:
MuA transposase [1] = target: MuA transposase (UniProt P07636); experiment: enzyme reaction in vitro; details: purified recombinant protein, variant of Control native Mu transposon end
MuA transposase [2] = target: MuA transposase (UniProt P07636); experiment: EMSA; details: weaker complex than control; purified recombinant protein; variant of Control native Mu transposon end
[3] = fragmentation apparent, lower efficiency

Row | Sequence | activity on this sequence (MuA transposase [1]; [3]) | binding result (MuA transposase [2]) | other results
1 | GTCATTACATTGATCGTGAAAGGCTTTCGCGTTGTTCGAGCGCCGCTTTA / TGCTAAAGCGGCGCTCGAACAACGCGAAAGCCTTTCACGATCAATGTAATGAC [Transposon No. 5] | less active | binds more weakly | 
2 | GTGCTTTCATTTATCGGGAAACGCTGTCGCGTTGTTCGTGCGCAGCTTTA / TGCTAAAGCTGCGCACGAACAACGCGACAGCGTTTCCCGATAAATGAAAGCAC [Transposon No. 10] | less active | binds more weakly | 
3 | GTTCTCGCATCTATCGTGAAAAGCTTCTCCGTTCTTCGGCCGCCGCTTCA / TGCTGAAGCGGCGGCCGAAGAACGGAGAAGCTTTTCACGATAGATGCGAGAAC [Transposon No. 9] |  |  | activity on this sequence (MuA transposase [1]; fragmentation completely abolished): not active
4 | GTTTGTGCATATATCGTAAAAAGCACTCGCGTATTTCGTGCGCCGCTTAA / TGCTTAAGCGGCGCACGAAATACGCGAGTGCTTTTTACGATATATGCACAAAC [Transposon No. 11] | less active | binds more weakly | 
5 | GTTTTCGCATTTATCGTGAAACGCTTTCGCGTTTTTCGTGCGAGTTCA / TGCTGAACTGACGCACGAAAAACGCGAAAGCGTTTCACGATAAATGCGAAAAC [Gap 42-6 transposon end] |  |  | activity on this sequence (MuA transposase [1]; active, slower than native end): less active
6 | GTTTTCGCATTTATCGTGAAACGCTTTCGCGTTTTTCGTGCGTCAGTTCA / TGCTGAACTGACGCACGAAAAACGCGAAAGCGTTTCACGATAAATGCGAAAAC [Nick 38-12 transposon end] |  |  | activity on this sequence (MuA transposase [1]; reduced efficiency, slower than native end): less active
7 | GTTTTCGCATTTATCGTGAAACGCTTTCGCGTTTTTCGTGCGTCAGTTCA / TGCTGAACTGACGCACGAAAAACGCGAAAGCGTTTCACGATAAATGCGAAAAC [Nick 45-5 transposon end] |  |  | activity on this sequence (MuA transposase [1]; reduced fragmentation efficiency): less active
8 | GTTTTCGCATTTATCGTGAAACGCTTTCGCGTTTTTCGTGTCAGTTCA / TGCTGAACTGACGCACGAAAAACGCGAAAGCGTTTCACGATAAATGCGAAAAC [Gap 40-8 transposon end] |  |  | activity on this sequence (MuA transposase [1]; active, profile similar to nick 38-12): less active
